The whole screen tested about 400,000 compounds, of which about 5,500 (1.4%) were called active. Inconclusive results, whose numbers are uncertain, are shown with a selection of clear calls. Calls come from the whole dose curve; as a rule, active = well fitted cell-killing curve with a large enough effect; inconclusive = small, poorly fitted or top-dose-only effect, or effect the other way; inactive = flat fitted curve, though single readings scatter. Potencies beside an inconclusive call are fits to weak or partial responses and may not hold up.
Test: qHTS assay for MDR1-selective chemotherapeutics: Primary screen using the parental adenocarcinoma cell KB-3-1; note: nearly all actives have a fitted effect of over 60% in size
Conditions: KB-3-1 viability, CellTiter-Glo ATP luminescence, 72 h; activity change, negative = cytotoxic: at 46.1 µM (top of the series)
Outline: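 72 h, 37 °C compound treatment of KB-3-1 parental cells; CellTiter-Glo added, 10 min, luminescence read. Data corrected against DMSO-only plates and normalized before curve fitting.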
% is set by controls: 0 for no effect and ±100 for the full control effect; potency is the fitted concentration of half-maximal effect.

Which Potency does the source give for `COc1ccc(N2CCN(Cc3cc4c(cc3Br)OCCO4)CC2)cc1` here?
Its Potency is inconclusive: 20.6 µM [cytotoxic, single point].

Which “activity change, negative = cytotoxic” value does the source give for `CCc1c(C)nc2ncnn2c1NCc1cccs1` here?
Its value is inactive: -6.48%.

For `CC(=O)Nc1ccc(CNc2nc3cc(-c4ccccc4C)sc3c(=O)n2C)cc1`, which Potency is on record?
Its Potency is inconclusive: 29.1 µM [cytotoxic, single point].

With `CCOC(=O)N1CCN(C(=O)CCSc2ccc(C)cc2)CC1` as the molecule, how does the “activity change, negative = cytotoxic” value read?
Its value is inactive: -5.41%.

With `COc1ccc(NC(=O)COc2ccccc2Cc2ccccc2)cc1S(N)(=O)=O` as the molecule, how does the Potency read?
Its Potency is active: 16.4 µM.

With `O=C(C1=C[C@@H](C2CC2)C[C@@H](OCc2ccc(CO)cc2)O1)N1CCN(Cc2ccc3c(c2)OCO3)CC1` as the molecule, how does the Potency read?
Its Potency is inconclusive: 32.6 µM [cytotoxic, single point].

With `CC(=O)Nc1ccc2nc(SCCOc3ccccc3Cl)sc2c1` as the molecule, how does the Potency read?
Its Potency is inconclusive: 18.4 µM [cytotoxic, single point].

With `Oc1ccc2ccccc2c1/C=N/Nc1ccccc1` as the molecule, how does the Potency read?
Its Potency is inconclusive: 29.1 µM [cytotoxic, single point].

With `C/C(=N/NC(=O)c1cc(-c2cccc([N+](=O)[O-])c2)n[nH]1)c1ccc(Cl)cc1` as the molecule, how does the Potency read?
Its Potency is inconclusive: 7.31 µM [rising, partial curve].

With `O=C1OCCN1C(=O)[C@H]1[C@H](c2ccc(F)cc2)C(c2cccc(Cl)c2)=NN1c1ccc(Br)cc1` as the molecule, how does the Potency read?
Its Potency is inconclusive: 16.4 µM [cytotoxic, single point].

For `Cc1cc(C)c(NC(=O)C2CCCN(C(=O)c3cnn(-c4ccccc4)c3-n3cccc3)C2)c(C)c1` (stereo unspecified), which Potency is on record?
Its Potency is inconclusive: 1.16 µM [cytotoxic, partial curve].

For `CCCOc1c(Cl)cc(C(=O)Nc2ccc3c(c2)OCO3)cc1OCC`, which Potency is on record?
Its Potency is inconclusive: 35.5 µM [cytotoxic, single point].

Which “activity change, negative = cytotoxic” value does the source give for `COc1ccc(OC)c(C(=O)NC(CC(N)=O)c2ccc(N3CCC(Cc4ccccc4)CC3)c([N+](=O)[O-])c2)c1` (stereo unspecified) here?
Its value is inactive: -6.2%.

For `CCOCCCNC(=S)N1CCN(c2nc(-c3ccc(F)cc3)cs2)CC1`, which Potency is on record?
The Potency was inconclusive: 32.6 µM [cytotoxic, partial curve, poor fit].

For `COc1ccc(NS(=O)(=O)c2ccc(C(=O)N3CCC(C)CC3)cc2)cc1`, which “activity change, negative = cytotoxic” value is on record?
The value was inactive: -14%.

With `Cn1c(=O)c2c(SCC(=O)N3CCCCC3)nc(-c3ccccc3F)nc2n(C)c1=O` as the molecule, how does the Potency read?
The Potency was inconclusive: 18.4 µM [rising, partial curve, poor fit].

With `Cc1cccc(NC(=O)[C@H](Cc2ccccc2)NC(=O)OCc2ccccc2)c1` as the molecule, how does the “activity change, negative = cytotoxic” value read?
Its value is inactive: 0%.

Which Potency does the source give for `CN(c1ccccc1)S(=O)(=O)c1cccc(NC(=O)Cc2ccc(Cl)cc2)c1` here?
The Potency was active: 23.1 µM.

With `O=C(Nc1ccc(C(=O)OC2CCCCC2)cc1)c1ccncc1` as the molecule, how does the Potency read?
Its Potency is inconclusive: 29.1 µM [cytotoxic, single point].

With `CCCc1cc(-n2ccnc2)n2c(nc3ccccc32)c1C#N` as the molecule, how does the Potency read?
Its Potency is inconclusive: 18.4 µM [cytotoxic, single point].

With `C#CCN(C(=O)c1ccc(OC2CCN(Cc3ccccn3)CC2)cc1)C1CCCCC1` as the molecule, how does the “activity change, negative = cytotoxic” value read?
The value was inactive: -0.591%.

With `COC(=O)c1c(Oc2ccc(Br)cc2)nnc(-c2ccccc2)c1-c1ccccc1` as the molecule, how does the Potency read?
The Potency was inconclusive: 13 µM [cytotoxic, partial curve, poor fit].

Which Potency does the source give for `COc1ccc(CCN2C(=S)N(C)C(=O)C2CC(=O)Nc2ccc(F)cc2)cc1` (stereo unspecified) here?
The Potency was inconclusive: 32.6 µM [cytotoxic, single point].

Which Potency does the source give for `CC(=O)N1CCCc2cc(S(=O)(=O)N3CCCC(C(=O)Nc4ccc(C)c(F)c4)C3)ccc21` (stereo unspecified) here?
Its Potency is inconclusive: 18.4 µM [cytotoxic, single point].

Which Potency does the source give for `Cc1ccccc1Nc1scc(-c2ccc(Cl)cc2)[n+]1-c1ccccc1C` here?
The Potency was active: 9.2 µM.

With `c1ccc(CNc2nc(NCCc3ccncc3)c3sccc3n2)cc1` as the molecule, how does the “activity change, negative = cytotoxic” value read?
The value was inactive: 0%.

With `CCOc1cc(C#N)c(NC(=O)c2ccco2)cc1OCC` as the molecule, how does the Potency read?
The Potency was active: 6.51 µM.

With `Fc1ccc(CN2CCN(c3ncnc4scc(-c5ccccc5)c34)CC2)cc1` as the molecule, how does the Potency read?
The Potency was inconclusive: 29.1 µM [cytotoxic, single point].

For `Cc1cccnc1NC(=O)CNC(=O)c1ccccc1`, which “activity change, negative = cytotoxic” value is on record?
The value was inactive: -2.75%.

Which “activity change, negative = cytotoxic” value does the source give for `COCCCNC(=O)CSc1nc2ccccc2c(=O)n1CCCN1CCCCC1` here?
Its value is inactive: -1.58%.

For `O=C(c1ccccc1)c1ccc(OCCCN2CCCCC2)cc1`, which “activity change, negative = cytotoxic” value is on record?
The value was inactive: -2.3%.

For `N#CC1=C(SCC(=O)c2ccc(Br)cc2)NC2=C(C(=O)CCC2)C1c1ccco1` (stereo unspecified), which Potency is on record?
Its Potency is active: 10.3 µM.

With `OC(CNCc1ccccc1)COc1ccccc1` (stereo unspecified) as the molecule, how does the “activity change, negative = cytotoxic” value read?
Its value is inactive: 13.1%.

With `Cc1cccc(C=CC(=O)c2ccc(Cl)cc2)c1` as the molecule, how does the Potency read?
Its Potency is inconclusive: 16.4 µM [cytotoxic, single point].

For `O=C(COC(=O)C1=COCCO1)Nc1ccc(Br)cc1Br`, which Potency is on record?
The Potency was inconclusive: 23.1 µM [rising, partial curve, poor fit].

For `CC(C)(O)C#Cc1ccc(N2C(c3ccsc3)=Cc3ccc(F)cc3C2c2c[nH]c3ccccc23)cc1` (stereo unspecified), which Potency is on record?
The Potency was inconclusive: 29.1 µM [cytotoxic, single point].

With `C=CCc1cc(/C=N/NC(=O)CSc2nnc(CCCc3ccc(OC)cc3)o2)cc(OC)c1O` as the molecule, how does the “activity change, negative = cytotoxic” value read?
The value was inactive: -0.329%.

Which Potency does the source give for `CCc1nnc(NC(=O)c2nc3nccc(C)n3n2)s1` here?
The Potency was inconclusive: 0.411 µM [rising, full curve].

For `Cc1nn(CCO)c(N)c1C1(O)C(=O)Nc2c(Cl)cc(Cl)cc21` (stereo unspecified), which Potency is on record?
The Potency was inconclusive: 23.1 µM [cytotoxic, single point].

Which Potency does the source give for `O=c1nccc(N/N=C/c2cccc(O)c2)[nH]1` here?
Its Potency is inconclusive: 20.6 µM [cytotoxic, single point].

With `O=C(Nc1nnc(C2CCCCC2)s1)C1CCN(C(=O)c2ccco2)CC1` as the molecule, how does the activity change, negative = cytotoxic read?
The activity change, negative = cytotoxic was inconclusive: -13.4%.

With `COc1ccc(C(=O)C2CCN(CC(=O)NCc3ccccc3)CC2)cc1` as the molecule, how does the Potency read?
Its Potency is inconclusive: 8.2 µM [cytotoxic, partial curve].

With `CC(=O)c1ccc(OCc2cc(C(=O)NC(C)c3cnn(C)c3)no2)cc1` (stereo unspecified) as the molecule, how does the “activity change, negative = cytotoxic” value read?
Its value is inactive: 24.9%.

With `Clc1ccc(CNc2ncnc3[nH]ncc23)c(Cl)c1` as the molecule, how does the “activity change, negative = cytotoxic” value read?
Its value is inactive: -16.2%.

With `CC(C)(C)c1ccc(C(=O)Nc2nnc3n2CCS3)cc1` as the molecule, how does the Potency read?
Its Potency is inconclusive: 16.4 µM [cytotoxic, single point].

For `COc1ccc(-c2ccnc(-c3ccncc3)n2)cc1`, which Potency is on record?
The Potency was inconclusive: 29.1 µM [cytotoxic, single point].
